Measurements: PMC4538844
Results are given in words; binding and its absence hold for the method and conditions named. In cells and extracts the contact can be indirect. A result given as binding can be weak or reduced; the word gives no strength.

Sequences of proteins named here, by UniProt entry; tags and fusion partners are left off. A change or cut given only in a name is not applied to a line headed by its entry.
UniProt Q9H6E5: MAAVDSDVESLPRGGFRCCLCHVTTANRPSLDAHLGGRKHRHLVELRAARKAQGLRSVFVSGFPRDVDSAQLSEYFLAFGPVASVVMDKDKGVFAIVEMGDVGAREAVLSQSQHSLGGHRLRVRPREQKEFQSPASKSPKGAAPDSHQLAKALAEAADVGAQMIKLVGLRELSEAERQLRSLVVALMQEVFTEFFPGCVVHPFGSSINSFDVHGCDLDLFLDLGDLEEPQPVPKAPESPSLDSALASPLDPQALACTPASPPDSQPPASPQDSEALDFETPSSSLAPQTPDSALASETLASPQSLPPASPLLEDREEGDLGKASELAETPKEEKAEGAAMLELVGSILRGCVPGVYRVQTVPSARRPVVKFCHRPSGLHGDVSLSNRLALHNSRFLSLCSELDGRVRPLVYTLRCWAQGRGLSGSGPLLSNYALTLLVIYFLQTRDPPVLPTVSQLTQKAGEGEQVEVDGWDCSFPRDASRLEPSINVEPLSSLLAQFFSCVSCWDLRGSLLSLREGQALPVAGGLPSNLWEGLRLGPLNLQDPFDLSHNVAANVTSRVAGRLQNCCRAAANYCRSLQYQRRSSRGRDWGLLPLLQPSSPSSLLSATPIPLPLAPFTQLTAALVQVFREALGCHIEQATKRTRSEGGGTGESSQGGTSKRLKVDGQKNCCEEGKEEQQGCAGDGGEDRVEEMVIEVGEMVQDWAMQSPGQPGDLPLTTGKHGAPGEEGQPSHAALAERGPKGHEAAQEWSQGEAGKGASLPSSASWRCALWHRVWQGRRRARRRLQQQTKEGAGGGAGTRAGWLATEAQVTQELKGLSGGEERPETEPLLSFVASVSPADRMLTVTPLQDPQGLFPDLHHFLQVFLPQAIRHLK
UniProt Q99755: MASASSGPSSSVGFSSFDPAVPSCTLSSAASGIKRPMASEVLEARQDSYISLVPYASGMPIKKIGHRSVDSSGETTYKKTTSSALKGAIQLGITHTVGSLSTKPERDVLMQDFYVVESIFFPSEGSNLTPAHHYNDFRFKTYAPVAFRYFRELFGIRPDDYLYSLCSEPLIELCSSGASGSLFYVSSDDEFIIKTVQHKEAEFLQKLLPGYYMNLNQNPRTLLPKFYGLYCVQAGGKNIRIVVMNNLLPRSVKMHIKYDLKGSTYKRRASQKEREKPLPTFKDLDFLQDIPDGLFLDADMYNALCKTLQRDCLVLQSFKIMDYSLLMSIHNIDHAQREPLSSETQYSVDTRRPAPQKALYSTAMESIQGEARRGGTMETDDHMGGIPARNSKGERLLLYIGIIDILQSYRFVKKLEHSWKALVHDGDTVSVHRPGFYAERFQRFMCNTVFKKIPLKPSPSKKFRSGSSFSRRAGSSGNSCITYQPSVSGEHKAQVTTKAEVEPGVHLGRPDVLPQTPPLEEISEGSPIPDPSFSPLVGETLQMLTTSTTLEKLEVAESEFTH

How the values were obtained:
[1] = molecular target: Star-PAP PRR deletion (human) (UniProt Q9H6E5); experiment: co-IP; anti-FLAG IP from lysates of HEK 293 cells with transiently expressed FLAG-Star-PAP forms, blots for associated endogenous proteins; buffer A (100 mM KCl, 5 mM EDTA, 5% NP-40, RNase A); also after tBHQ or DMSO treatment, control siRNA
[2] = molecular target: Star-PAP with cysteine mutations in the core ZF structure to serine (C18S, C21S) (human) (UniProt Q9H6E5); experiment: as above

**Q.** Which binding [1] does the source give for “PIPKIα (endogenous) (from UniProt Q99755 1-562) (enzyme)” here?
**A.** binds

**Q.** What about the binding [2] of the same substance?
**A.** binds
